Results deposited as PubChem BioAssay AID1159578 (Peter MacCallum Cancer Centre, 2015)
Shown is one part, drawn at random, of about 18,000 reagents. About 1,030 of them (5.7%) count as active. 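Inactive calls also include pools with fewer than 3300 nuclei, whose migration was not assessed.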 Raw values are not corrected between plates. Entries without a mark were called inactive. Further read-outs or replicates are left out here. Reagent sequences are not shown.

Screen: 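Genome-wide hunt for genes controlling movement of lymphatic endothelial cells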 (primary screen)
Cells: human lymphatic endothelial cells
Knock-down reagent: siRNA pool against human genes, 40 nM
Time to read-out: 48 h after transfection
Measured: 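Cells stained with dye and imaged after a scratch; covered wound area and nuclei counted, duplicates averaged, migration set against mock wells and turned into a robust z-score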
Reading the numbers: migration robust z-score: higher = faster migration into the scratch; nuclei per well: higher = more cells in the well
Call rule: 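Pools averaging fewer than 3300 nuclei are never called; remaining pools count as changed when migration robust z lies outside -2 to 2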
Calls: active = migration changed; inactive = no migration change, or too few cells

With knock-down of GCLC the results were migration robust z-score 0.1; migration class with cell-count check migration z between -2 and 2; enough cells; nuclei per well, duplicate mean 7237.
GATD1 scored migration robust z-score 0.69; migration class with cell-count check migration z between -2 and 2; enough cells; nuclei per well, duplicate mean 4648.
Depletion of POLRMT gave: migration robust z-score 1.97; migration class with cell-count check migration z between -2 and 2; enough cells; nuclei per well, duplicate mean 4854.
For HSD17B12 the deposit lists migration robust z-score 0.12; migration class with cell-count check migration z between -2 and 2; enough cells; nuclei per well, duplicate mean 6596.
With knock-down of C6orf62 the results were migration robust z-score 0.6; migration class with cell-count check migration z between -2 and 2; enough cells; nuclei per well, duplicate mean 6096.
Against SLC35H1, the values are migration robust z-score 0.37; migration class with cell-count check migration z between -2 and 2; enough cells; nuclei per well, duplicate mean 5911.
For ZNF396, the entry reads migration robust z-score 0.45; migration class with cell-count check migration z between -2 and 2; enough cells; nuclei per well, duplicate mean 6358.
After knock-down of HNMT, the screen gave migration robust z-score -1.58; migration class with cell-count check migration z between -2 and 2; enough cells; nuclei per well, duplicate mean 5702.
After knock-down of OR5P2, the record shows migration robust z-score 0.52; migration class with cell-count check migration z between -2 and 2; enough cells; nuclei per well, duplicate mean 4890.
FAM78B gave migration robust z-score -1.79; migration class with cell-count check migration z between -2 and 2; enough cells; nuclei per well, duplicate mean 4968.
With knock-down of CNOT1, the screen gave migration robust z-score -4.85; migration class with cell-count check under 3300 nuclei; migration not judged; nuclei per well, duplicate mean 2414.
Against MCL1 the deposit lists migration robust z-score -5.61; migration class with cell-count check under 3300 nuclei; migration not judged; nuclei per well, duplicate mean 2366.
With knock-down of CCDC172 the results were migration robust z-score 0.86; migration class with cell-count check migration z between -2 and 2; enough cells; nuclei per well, duplicate mean 5607.

3 neighbouring reagents already listed:
HSD17B12: migration robust z-score = 0.12; migration class with cell-count check = migration z between -2 and 2; enough cells; nuclei per well, duplicate mean = 6596
C6orf62: migration robust z-score = 0.6; migration class with cell-count check = migration z between -2 and 2; enough cells; nuclei per well, duplicate mean = 6096
SLC35H1: migration robust z-score = 0.37; migration class with cell-count check = migration z between -2 and 2; enough cells; nuclei per well, duplicate mean = 5911

Further entries follow.
Silencing of KCNA5 came out at: migration robust z-score -0.62; migration class with cell-count check migration z between -2 and 2; enough cells; nuclei per well, duplicate mean 5668.
Against PHOX2A, the entry reads migration robust z-score 1.15; migration class with cell-count check migration z between -2 and 2; enough cells; nuclei per well, duplicate mean 6134.
Knock-down of DNASE1 gave: migration robust z-score -0.23; migration class with cell-count check migration z between -2 and 2; enough cells; nuclei per well, duplicate mean 5525.
After knock-down of GPKOW the results were migration robust z-score 0.4; migration class with cell-count check migration z between -2 and 2; enough cells; nuclei per well, duplicate mean 5909.
With knock-down of LRP6 the results were migration robust z-score 0; migration class with cell-count check migration z between -2 and 2; enough cells; nuclei per well, duplicate mean 4984.
For NEU1 the deposit lists migration robust z-score -0.08; migration class with cell-count check migration z between -2 and 2; enough cells; nuclei per well, duplicate mean 5646.
Knock-down of POLG2 gave: migration robust z-score 0.75; migration class with cell-count check migration z between -2 and 2; enough cells; nuclei per well, duplicate mean 5074.
GPHRB gave migration robust z-score 0.36; migration class with cell-count check migration z between -2 and 2; enough cells; nuclei per well, duplicate mean 5343.
